Assay results published in the supplement of paper PMC12823440, “Inhibitors supercharge kinase turnover through native proteolytic circuits” (Nature, 2025).
Where a name gives a salt, the structure may show the parent alone. The list shows a part of the results. Hit calls seldom repeat between salt and free forms of one compound.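 Kinases were expressed as nanoluciferase fusions in K562 cells and luminescence was read every 4 h between 2 and 18 h as percent of control, DMSO set to 100% and a positive control to 0%. A time point counts as decreased when the signal drops significantly (2 sigma). The hit call is the authors' own, does not follow from the count of time points alone, and its rule is not shown.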

The chains behind the UniProt entries cited, without tags or fusion partners.
UniProt Q9UQM7, whole entry: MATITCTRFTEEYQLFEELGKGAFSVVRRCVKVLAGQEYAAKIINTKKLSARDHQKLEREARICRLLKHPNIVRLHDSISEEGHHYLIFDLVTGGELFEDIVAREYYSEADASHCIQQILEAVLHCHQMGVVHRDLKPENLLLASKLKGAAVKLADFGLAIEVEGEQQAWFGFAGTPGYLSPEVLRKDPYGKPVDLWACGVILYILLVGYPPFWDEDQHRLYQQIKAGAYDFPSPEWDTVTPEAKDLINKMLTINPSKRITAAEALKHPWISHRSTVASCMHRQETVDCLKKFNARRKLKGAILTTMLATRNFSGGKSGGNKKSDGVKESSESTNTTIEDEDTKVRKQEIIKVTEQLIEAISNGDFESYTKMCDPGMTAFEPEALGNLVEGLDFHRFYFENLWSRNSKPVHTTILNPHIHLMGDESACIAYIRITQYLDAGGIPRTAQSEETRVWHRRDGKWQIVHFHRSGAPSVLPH

What follows are molecules tested against CAMK2A (UniProt Q9UQM7) (assay: kinase-Nluc reporter destabilization hit call (1 = scored as downregulated) (binary); higher = compound decreases kinase abundance). Conditions: K562; 2-18 h.

kinase-Nluc reporter destabilization hit call, inactive:
N#Cc1ccc2[nH]c(O)c(-c3ccc(CN4CCOCC4)cn3)c2c1 (10 µM) 0
O=C1NCCc2[nH]c(-c3ccnc(-c4cnc5ccccc5c4)c3)cc21 (10 µM) 0
Oc1cc(O)cc(/C=C/c2ccc(O)c(O)c2)c1 [Piceatannol] (10 µM) 0
O=C(NOC[C@H](O)CO)c1ccc(F)c(F)c1Nc1ccc(I)cc1F (2.5 µM) 0
Cn1c(=O)n(-c2ccc(C(C)(C)C#N)cc2)c2c3cc(-c4cnc5ccccc5c4)ccc3ncc21 [Dactolisib (Tosylate)] (10 µM) 0
CCCCNc1ncc(-c2ccc(CN3CCOCC3)cn2)c(NC2CCC(O)CC2)n1 (stereo unspecified) (10 µM) 0
O=C(Nc1cc(C(F)(F)F)ccc1N1CCN(Cc2ccccn2)CC1)c1ccc(-c2ccncc2)o1 (10 µM) 0
CC[C@H](CO)Nc1nc(NCc2ccccc2)c2ncn(C(C)C)c2n1 [Seliciclib] (10 µM) 0
COC(=O)c1ccc2c(C(=Nc3ccc(N(C)C(=O)CN4CCN(C)CC4)cc3)c3ccccc3)c(O)[nH]c2c1 [Nintedanib] (2.5 µM) 0
COc1cc(F)cc([C@@H](CO)NC(=O)[C@@H](C)N2Cc3ccc(-c4nc(NC5CCOCC5)ncc4Cl)cc3C2=O)c1 [ERK1/2 inhibitor 2] (10 µM) 0
CC(C)c1ccc2oc3nc(N)c(C(=O)O)cc3c(=O)c2c1 [Amlexanox] (10 µM) 0
CN(C)C[C@@H]1CCn2cc(c3ccccc32)C2=C(C(=O)NC2=O)c2cn(c3ccccc23)CCO1 [Ruboxistaurin (hydrochloride)] (10 µM) 0
CCc1nc(-c2cccc(C)c2)c(-c2ccnc(NC(=O)c3ccccc3)c2)s1 (10 µM) 0
CCOc1cc2ncc(-c3cc(N)nc(F)c3)n2cc1S(=O)(=O)C(C)(C)C (10 µM) 0
CC(C)(/C=C(\C#N)C(=O)N1CCC[C@@H](n2nc(-c3ccc(Oc4ccccc4)cc3F)c3c(N)ncnc32)C1)N1CCN(C2COC2)CC1 (2.5 µM) 0
CCCn1cnc2c(NCc3ccccc3)nc(NC(CC)CO)nc21 (stereo unspecified) [Ca2+ channel agonist 1] (2.5 µM) 0
Brc1c(Br)c(Br)c2n[nH]nc2c1Br (10 µM) 0
Nc1nc(OCC2CCCCC2)c2[nH]cnc2n1 (10 µM) 0
COc1ccc(Oc2cc(NCCC(F)(F)F)c3ncc(-c4ccc(C(=O)NC5CC5)c(C)c4)n3n2)c(F)c1F (2.5 µM) 0
COc1cc(C(=O)NC2CCN(C)CC2)c(F)cc1Nc1ncc2c(n1)N(C1CCCC1)CC(F)(F)C(=O)N2C [TAK-960 (dihydrochloride)] (2.5 µM) 0
COc1ccc(NC(=O)N2CCN(c3nc(N)nc4c3cnn4C)[C@@H](C)C2)c(C)c1 (10 µM) 0
O=C(Nc1ccc(-c2ccnc(Nc3ccc(N4CCOCC4)cc3)n2)cc1)C1CCCN1 (stereo unspecified) (10 µM) 0
COc1nccc(-c2c(-c3ccc(F)cc3)ncn2C2CCC(O)CC2)n1 (stereo unspecified) (10 µM) 0
NC(=O)c1ccc2nc(-c3ccc(Oc4ccc(Cl)cc4)cc3)[nH]c2c1 (10 µM) 0
Cc1cc(C)c(/C=C2\C(=O)Nc3ccccc32)[nH]1 [Semaxinib] (10 µM) 0
COc1ccc(COc2ccc(Cc3cnc(N)nc3N)cc2OC)cc1 (10 µM) 0
CN1CCN(c2ccc(Nc3cc(-c4cccc(-n5ccc6cc(C7CC7)cc(F)c6c5=O)c4CO)cn(C)c3=O)nc2)CC1 (2.5 µM) 0
C=CC(=O)N1CCC[C@@H](n2nc(-c3ccc(Oc4ccccc4)cc3)c(C(N)=O)c2N)C1 [Btk inhibitor 2] (10 µM) 0
Cc1c(NC(=O)c2cc3c(s2)CCCC3)cccc1-c1cn(C)c(=O)c(Nc2ccc([C@@H]3C(=O)N(C)CCN3C)cc2)n1 (10 µM) 0
CCOc1ccn(-c2ccc(F)cc2)c(=O)c1C(=O)Nc1ccc(Oc2ccnc(N)c2Cl)c(F)c1 (10 µM) 0
CCn1c(=O)c2cc(C(N)=O)c(N)nc2n(C2CC2)c1=O (10 µM) 0

Reprinted at random: two entries already listed
kinase-Nluc reporter destabilization hit call, inactive:
COc1cc(F)cc([C@@H](CO)NC(=O)[C@@H](C)N2Cc3ccc(-c4nc(NC5CCOCC5)ncc4Cl)cc3C2=O)c1 [ERK1/2 inhibitor 2] (10 µM) 0
CN1CCN(c2ccc(Nc3cc(-c4cccc(-n5ccc6cc(C7CC7)cc(F)c6c5=O)c4CO)cn(C)c3=O)nc2)CC1 (2.5 µM) 0
